Measurements reported in PubChem BioAssay AID1224830 (NIAID, 2016)

- Screen: 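Regulators of TLR4 signalling towards TNF-alpha in macrophage-like cells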 (primary screen)
- Cells: human THP-1 monocytic leukaemia cells, TNF dual-luciferase reporter clone, PMA-differentiated to macrophage-like cells
- Reagents: siRNA pool against human genes, 50 nM
- Time to read-out: LPS for 4 h, given about 3 days after siRNA transfection
- Conditions: bacterial LPS (TLR4 ligand), 10 ng/ml
- Detection: 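Ratio of firefly to renilla light, scaled to the plate median and expressed as a robust z-score per replicate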
- Direction: TNF reporter robust z-score: higher = stronger TNF reporter response to LPS
- Active means: 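Each well counts as active if its z-score is over 2.8 or under -1.5; controls are left without a call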
Shown is one part, drawn at random, of about 18,000 reagents. Of all reagents, about 2,900 (16%) are marked active. 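Calls are made per well; low scores hint the gene aids the LPS response, high scores that it dampens it.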 Repeated entries: four replicate wells of each siRNA pool.

| Gene | TNF reporter robust z-score | call |
| --- | --- | --- |
| PNPLA2 (GeneID 57104) | 0.43 | inactive |
| PNPLA2 (GeneID 57104) | 0.62 | inactive |
| PNPLA2 (GeneID 57104) | 0.3 | inactive |
| PNPLA2 (GeneID 57104) | -1.14 | inactive |
| ZFP1 (GeneID 162239) | – | inactive |
| ZFP1 (GeneID 162239) | -1.31 | inactive |
| ZFP1 (GeneID 162239) | -1.18 | inactive |
| ZFP1 (GeneID 162239) | -1.34 | inactive |
| ZFP1 (GeneID 162239) | -1.4 | inactive |
| C2orf42 (GeneID 54980) | -1.12 | inactive |
| C2orf42 (GeneID 54980) | -0.19 | inactive |
| C2orf42 (GeneID 54980) | -0.57 | inactive |
| C2orf42 (GeneID 54980) | -0.37 | inactive |
| DNAI4 (GeneID 79819) | 0.57 | inactive |
| DNAI4 (GeneID 79819) | 1.54 | inactive |
| DNAI4 (GeneID 79819) | 3.09 | active |
| DNAI4 (GeneID 79819) | -0.9 | inactive |
| SH3BGRL2 (GeneID 83699) | 0.27 | inactive |
| SH3BGRL2 (GeneID 83699) | -0.34 | inactive |
| SH3BGRL2 (GeneID 83699) | -0.29 | inactive |
| SH3BGRL2 (GeneID 83699) | -0.22 | inactive |
| JOSD1 (GeneID 9929) | -0.7 | inactive |
| JOSD1 (GeneID 9929) | 0.01 | inactive |
| JOSD1 (GeneID 9929) | 0.1 | inactive |
| JOSD1 (GeneID 9929) | -0.34 | inactive |
| TEC (GeneID 7006) | -1.01 | inactive |
| TEC (GeneID 7006) | -0.44 | inactive |
| TEC (GeneID 7006) | 0.16 | inactive |
| TEC (GeneID 7006) | 1 | inactive |
| MS4A14 (GeneID 84689) | -1.63 | active |
| MS4A14 (GeneID 84689) | -1.32 | inactive |
| MS4A14 (GeneID 84689) | -0.98 | inactive |
| MS4A14 (GeneID 84689) | -1.33 | inactive |
| CPS1 (GeneID 1373) | 0.51 | inactive |
| CPS1 (GeneID 1373) | 1.36 | inactive |
| CPS1 (GeneID 1373) | 0.73 | inactive |
| CPS1 (GeneID 1373) | 0.78 | inactive |
| LSM4 (GeneID 25804) | -0.32 | inactive |
| LSM4 (GeneID 25804) | -1.35 | inactive |
| LSM4 (GeneID 25804) | -1.68 | active |
| LSM4 (GeneID 25804) | -0.27 | inactive |
| PHYH (GeneID 5264) | 1.55 | inactive |
| PHYH (GeneID 5264) | 2.23 | inactive |
| PHYH (GeneID 5264) | 2.1 | inactive |
| PHYH (GeneID 5264) | 3.61 | active |
| LYG1 (GeneID 129530) | 0.05 | inactive |
| LYG1 (GeneID 129530) | 0.67 | inactive |
| LYG1 (GeneID 129530) | -0.07 | inactive |
| LYG1 (GeneID 129530) | -0.11 | inactive |
| IL33R (GeneID 9173) | -0.28 | inactive |
| IL33R (GeneID 9173) | 0.94 | inactive |
| IL33R (GeneID 9173) | -0.51 | inactive |
| IL33R (GeneID 9173) | 0.83 | inactive |
| MAPDA (GeneID 161823) | 0.74 | inactive |
| MAPDA (GeneID 161823) | 0.53 | inactive |
| MAPDA (GeneID 161823) | 1.69 | inactive |
| MAPDA (GeneID 161823) | 1.1 | inactive |
| RASA4 (GeneID 10156) | -1.85 | active |
| RASA4 (GeneID 10156) | -1.69 | active |
| RASA4 (GeneID 10156) | -1.73 | active |
| CEACAM4 (GeneID 1089) | -0.25 | inactive |
| CEACAM4 (GeneID 1089) | -1.29 | inactive |
| CEACAM4 (GeneID 1089) | -0.27 | inactive |
| CEACAM4 (GeneID 1089) | -0.83 | inactive |
| ZNF200 (GeneID 7752) | -1.05 | inactive |
| ZNF200 (GeneID 7752) | -1.19 | inactive |
| ZNF200 (GeneID 7752) | -1.02 | inactive |
| ZNF200 (GeneID 7752) | -0.91 | inactive |
| ARHGAP24 (GeneID 83478) | 1.92 | inactive |
| ARHGAP24 (GeneID 83478) | 4.54 | active |
| ARHGAP24 (GeneID 83478) | 2.24 | inactive |
| ARHGAP24 (GeneID 83478) | 0.68 | inactive |
| PAX5 (GeneID 5079) | 0.65 | inactive |
| PAX5 (GeneID 5079) | 0.5 | inactive |
| PAX5 (GeneID 5079) | 1.04 | inactive |
| PAX5 (GeneID 5079) | 0.01 | inactive |
| REXO5 (GeneID 81691) | -0.45 | inactive |
| REXO5 (GeneID 81691) | -0.52 | inactive |
| REXO5 (GeneID 81691) | -0.67 | inactive |
| REXO5 (GeneID 81691) | 0.09 | inactive |
| HBG1 (GeneID 3047) | -0.54 | inactive |
| HBG1 (GeneID 3047) | -1.02 | inactive |
| HBG1 (GeneID 3047) | -0.85 | inactive |
| HBG1 (GeneID 3047) | -0.03 | inactive |
| KLF7 (GeneID 8609) | 0.31 | inactive |
| KLF7 (GeneID 8609) | 1.79 | inactive |
| KLF7 (GeneID 8609) | -0.07 | inactive |
| KLF7 (GeneID 8609) | 2.04 | inactive |
| ETNK2 (GeneID 55224) | -1.55 | active |
| ETNK2 (GeneID 55224) | -1.36 | inactive |
| ETNK2 (GeneID 55224) | -1.3 | inactive |
| ETNK2 (GeneID 55224) | -0.74 | inactive |
| SPAG11A (GeneID 653423) | -1.13 | inactive |
| SPAG11A (GeneID 653423) | -0.79 | inactive |
| SPAG11A (GeneID 653423) | -0.01 | inactive |
| SPAG11A (GeneID 653423) | 0.31 | inactive |
| FBF1 (GeneID 85302) | 0 | inactive |
| FBF1 (GeneID 85302) | -0.15 | inactive |
| FBF1 (GeneID 85302) | 0.35 | inactive |
| FBF1 (GeneID 85302) | 0.96 | inactive |
| KDM5B (GeneID 10765) | 0.14 | inactive |
| KDM5B (GeneID 10765) | 0.01 | inactive |
| KDM5B (GeneID 10765) | -0.28 | inactive |
| KDM5B (GeneID 10765) | 25.1 | active |
| SYPL2 (GeneID 284612) | -1.21 | inactive |
| SYPL2 (GeneID 284612) | -0.84 | inactive |
| SYPL2 (GeneID 284612) | -1.26 | inactive |
| SYPL2 (GeneID 284612) | -1.38 | inactive |
| OR2L13 (GeneID 284521) | -0.53 | inactive |
| OR2L13 (GeneID 284521) | -1.4 | inactive |
| OR2L13 (GeneID 284521) | -0.69 | inactive |
| OR2L13 (GeneID 284521) | -0.54 | inactive |
| AQP8 (GeneID 343) | 0.52 | inactive |
| AQP8 (GeneID 343) | 1.07 | inactive |
| AQP8 (GeneID 343) | 0.5 | inactive |
| AQP8 (GeneID 343) | 0.57 | inactive |
| PTGES2 (GeneID 80142) | -0.25 | inactive |
| PTGES2 (GeneID 80142) | 0.85 | inactive |
| PTGES2 (GeneID 80142) | 1.33 | inactive |
| PTGES2 (GeneID 80142) | 2.18 | inactive |
| SLC25A15 (GeneID 10166) | -1.8 | active |
| SLC25A15 (GeneID 10166) | 0.49 | inactive |
| SLC25A15 (GeneID 10166) | -0.73 | inactive |
| SLC25A15 (GeneID 10166) | 0.18 | inactive |
| P2RY14 (GeneID 9934) | -0.96 | inactive |
| P2RY14 (GeneID 9934) | -0.54 | inactive |
| P2RY14 (GeneID 9934) | -1.03 | inactive |
| P2RY14 (GeneID 9934) | -0.77 | inactive |
| ADCYAP1 (GeneID 116) | 0.04 | inactive |
| ADCYAP1 (GeneID 116) | 0.47 | inactive |
| ADCYAP1 (GeneID 116) | -0.19 | inactive |
| ADCYAP1 (GeneID 116) | -0.17 | inactive |
| ACTR5 (GeneID 79913) | -0.89 | inactive |
| ACTR5 (GeneID 79913) | 1.29 | inactive |
| ACTR5 (GeneID 79913) | 0.41 | inactive |
| ACTR5 (GeneID 79913) | 0.26 | inactive |
| PLPP1 (GeneID 8611) | -1.42 | inactive |
| PLPP1 (GeneID 8611) | -1.79 | active |
| PLPP1 (GeneID 8611) | -1.92 | active |
| PLPP1 (GeneID 8611) | -1.6 | active |

A portion of the results above, as a working copy:
| Gene | TNF reporter robust z-score | call |
| --- | --- | --- |
| LSM4 (GeneID 25804) | -0.27 | inactive |
| PHYH (GeneID 5264) | 1.55 | inactive |
| PHYH (GeneID 5264) | 2.23 | inactive |
| PHYH (GeneID 5264) | 2.1 | inactive |
| PHYH (GeneID 5264) | 3.61 | active |
| LYG1 (GeneID 129530) | 0.05 | inactive |
| LYG1 (GeneID 129530) | 0.67 | inactive |
| LYG1 (GeneID 129530) | -0.07 | inactive |
| LYG1 (GeneID 129530) | -0.11 | inactive |
| IL33R (GeneID 9173) | -0.28 | inactive |
| IL33R (GeneID 9173) | 0.94 | inactive |
| IL33R (GeneID 9173) | -0.51 | inactive |
| IL33R (GeneID 9173) | 0.83 | inactive |
| MAPDA (GeneID 161823) | 0.74 | inactive |
| MAPDA (GeneID 161823) | 0.53 | inactive |
| MAPDA (GeneID 161823) | 1.69 | inactive |
| MAPDA (GeneID 161823) | 1.1 | inactive |
